PubChem BioAssay AID1508588 – Peter MacCallum Cancer Centre | 2020
Aim: 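Knock-downs boosting vemurafenib effects on melanoma cell growth or lactate release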 (primary screen). System: human WM266.4 melanoma cells (BRAF V600 mutant). Knock-down reagent: siRNA pool against human genes, 40 nM. Time to read-out: 96 h from transfection to read-out. Treatment: vemurafenib 300 nM (about IC25), added 48 h after transfection, for 48 h; comparison arm got DMSO vehicle only. Read-out: 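Cell gain (DAPI nuclei at end minus before drug, mean of two replicates) and medium lactate by absorbance per cell, both as ratio to non-targeting siRNA, also grouped into fold-change classes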. Scale: cell gain with vemurafenib: higher = more cell gain than with non-targeting siRNA; lactate per cell with vemurafenib: higher = more lactate made per cell. Rule for the call: 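Enhancement is called by pairing each knock-down's vehicle-arm and drug-arm fold-change classes for viability or glycolysis; which class combinations qualify is not given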. Calls: active = enhances vemurafenib effect; inactive = no enhancement seen.
This is an unselected part of about 18,000 reagents. Over the whole deposit, 790 (4.4%) are marked active. 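Calls rest on a combination of fold-change classes in drug and vehicle arms, not all shown here.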 Unmarked entries are inactive.

| cell gain with vemurafenib | lactate per cell with vemurafenib | gene |
| --- | --- | --- |
| 0.92 | 0.7 | ORC6 |
| 0.06 | 1.25 | MLNR |
| 0.5 | 0.89 | SLC11A1 |
| 0.78 | 0.71 | NFIA |
| 0.49 | 0.35 | OR5C1 |
| 0.74 | 0.94 | RANGRF |
| 0.16 | 0.38 | COL6A2 |
| 0.37 | 1.31 | TREM2 |
| 0.31 | 1.63 | COLEC11 |
| 0.57 | 0.57 | MCCC2 |
| 0.4 | 0.5 | SNRNP70 |
| 0.26 | 0.78 | TMEM165 |
| 0.52 | 0.41 | NEXMIF |
| 1.03 | 0.84 | LILRB2 |
| 0.19 (active) | 0.94 | PHYHD1 |
| 0.76 | 0.87 | RFTN1 |
| 0.46 | 0.98 | SDK2 |
| 0.46 | 0.7 | ME3 |
| 0.77 | 0.68 | ALG3 |
| 0.55 | 1.66 | RAMAC |
| 0.3 | 1.05 | STING1 |
| 0.77 | 1.02 | ST6GALNAC2 |
| 0.26 | 1.86 | KIR2DL5A |
| 0.65 | 1.17 | ARID4B |
| 0.91 | 0.48 | GAGE12I |
| 0.68 | 1.3 | SYNPO |
| 0.5 | 0.56 | YY1 |
| 0.73 | 1.02 | FAM81B |
| 0.1 | 1.04 | ARC |
| 0.68 (active) | 0.48 | ADD1 |
| 0.97 | 0.96 | CCDC106 |
| 0.57 | 0.9 | PRKAA2 |
| 0.43 | 0.73 | MBTD1 |
| 0.35 | 0.61 | PAGE4 |
| 0.66 | 0.55 | NCK1 |
| 0.5 | 1.12 | ADPRS |
| 0.76 | 1.09 | VARS1 |
| 0.69 | 1.17 | ERVW-1 |
| 0.75 | 0.57 | RASSF5 |
| 0.12 | 2.13 | NT5E |
| 0.02 | 2.09 | EXOSC8 |
| 1.19 | 0.86 | CCDC71 |
| 0.01 | 3.26 | TVP23C |
| 0.81 | 0.54 | ABHD14A |
| 0.47 | 1.56 | BUB1 |
| 0.47 | 1.27 | MORF4L2 |
| 0.08 | 2.97 | ANKRD13C-DT |
| 1.2 | 0.66 | PARN |
| 0.92 | 0.9 | THADA |
| 0.29 | 1.33 | TMEM54 |
| 0.57 | 1.38 | IL4I1 |
| 0.23 | 1.64 | POU3F4 |
| 0 | 3.17 | KBTBD4 |
| 0.36 | 0.93 | SYCP3 |
| -0.05 | 2.01 | PSMD3 |
| 0.63 | 0.7 | OVGP1 |
| 0.78 | 0.7 | ADH1A |

Reformatted: results already given
PARN
- cell gain with vemurafenib: 1.2
- lactate per cell with vemurafenib: 0.66

THADA
- cell gain with vemurafenib: 0.92
- lactate per cell with vemurafenib: 0.9

TMEM54
- cell gain with vemurafenib: 0.29
- lactate per cell with vemurafenib: 1.33

IL4I1
- cell gain with vemurafenib: 0.57
- lactate per cell with vemurafenib: 1.38
